“And” between values parts separate entries of the source, which are not always exact repeats. Equal entries are not always repeated. This is one part of the list. Single wells; the ratio to wells without odorant was worked out here, and repeats agree poorly.

In the odorant receptor screen of Mainland et al. (2015) one finds odorant receptor activation data, which are given here for 13 molecules.

What all share (experiment): odorant receptor activation (CRE luciferase / Renilla) (fold of no-odor wells); higher = more activation
Common to all, as to conditions: 100 µM

In test [1] the test system is OR5H6 clone 1470.
Test [2] concerns OR5I1 clone 1146.
Test [3] concerns OR5J2 clone 1241.
The test system of test [4] is OR5K1 clone 1502.
The subject of test [5] is OR5K2 clone 1068.
For test [6], the system named is OR5K3 clone 1514.
In test [7] the test system is OR5K4 I206V clone 1729.
Test [8] relates to OR5L1 clone 1204.
Test [9] relates to OR5L1 clone 1383.
In test [10] the test system is OR5L1 clone 1720.

Consider `CC(C)C=O` [isobutyraldehyde], for which the odorant receptor activation in test [1] was 0.668 and 1.07; in [2], 1; in test [3] it was 0.711; in [4], 0.925 and 1.07; in [5] it was 1.44; in test [6], 0.95 and 0.99. Besides, the odorant receptor activation in test [7] came to 0.99; in test [8] it was 1.22; in test [9], 0.62; in test [10], 0.675.

With `CC(C)=CCCC(C)=CC=O` [citral], the odorant receptor activation in test [1] was found to be 0.951; in [2], 0.969; in [3], 0.995; in test [4], 1.11; in test [5], 0.902; in [6], 1.02. Also, the odorant receptor activation came out at 1.05 in test [7], 0.986 in test [8], 0.244 in test [9] and 0.841 in test [10].

Turning to `CCCCCOC(C)=O` [n-amyl acetate], the odorant receptor activation was 0.583 and 0.927 in [1]; 0.529 in test [2]; 1.08 in test [3]; 0.891 and 0.876 in test [4]; 1.42 in test [5]; 0.581 and 0.432 in test [6]. The odorant receptor activation in [7] was found to be 0.776; in test [8], 0.638; in [9] it was 0.762; in test [10] it was 1.23.

With `CC12CCC(CC1)C(C)(C)O2` [cineole], the odorant receptor activation worked out at 0.767 in test [1]; 0.781 in test [2]; 0.989 in [3]; 0.902 in [4]; 0.676 in test [5]; 0.954 in test [6]. The odorant receptor activation in test [7] stood at 1.71; in test [8] it was 0.846; in [9] it was 0.175; in [10], 0.721.

In the case of `CCCCCCCCCCC=O` [undecanal], the odorant receptor activation worked out at 1.04 in test [1]; 0.965 in [2]; 1.36 in [3]; 1.14 in test [4]; 0.847 in test [5]; 1 in test [6]. For the same molecule, the odorant receptor activation was determined as 0.991 in [7], 1.06 in test [8], 1.28 in test [9] and 1.45 in test [10].

Consider `COc1ccccc1O` [guaiacol], for which the odorant receptor activation in test [1] was 0.81 and 1.07; in test [2], 1.37; in test [3], 1.14; in [4], 0.943 and 1.11; in test [5], 1.64; in test [6], 0.847 and 1.09. The odorant receptor activation in test [7] came out at 1.03; in test [8], 1.04; in test [9] it was 0.86; in test [10], 0.714.

On to `CC(=O)C(C)=O` [diacetyl], for which the odorant receptor activation stood at 1.17 in test [1]; 1.24 in [2]; 0.933 in test [3]; 1.57 in test [4]; 1.1 in test [5]; 1.3 in test [6]. In addition, the odorant receptor activation in test [7] is 0.528; in [8] it was 0.787; in test [9], 1.24; in [10], 0.491.

For `CCC1(O)C2(C)CCC(C2)C1(C)C` (stereo not given) [2-ethylfenchol], the odorant receptor activation amounted to 1.21 in test [1]; 1.22 in test [2]; 0.65 in [3]; 1.02 in test [4]; 6.42 in [5]; 0.942 in test [6]. Besides, the odorant receptor activation in test [7] stood at 0.813; in [8] it was 0.824; in test [9] it was 0.669; in test [10] it was 0.946.

In the case of `C=CCc1ccc(OC(C)=O)c(OC)c1` [eugenol acetate], the odorant receptor activation was 1.98 in test [1]; 2.26 in [2]; 2.15 in test [3]; 1.43 in test [4]; 1.32 in test [5]; 2 in test [6]. Besides, the odorant receptor activation in test [7] was determined as 1.51; in test [8], 1.43; in [9] it was 2.11; in [10], 1.65.

With `CC1CCC(C(C)C)C(O)C1` (single isomer, unassigned; (-)) [(-)-menthol], the odorant receptor activation in test [1] came out at 5; in [2], 1.16; in test [3], 0.935; in [4], 1.19; in test [5] it was 4.52; in [6], 0.862. In addition, the odorant receptor activation came to 1.02 in test [7], 0.936 in test [8], 0.432 in [9] and 0.961 in [10].

For `CC/C=C\CCO` [cis-3-hexen-1-ol], the odorant receptor activation came to 0.869 in test [1]; 0.975 in test [2]; 1.2 in [3]; 1.09 in test [4]; 0.851 in test [5]; 1.04 in test [6]. Further, the odorant receptor activation was found to be 1.25 in [7], 0.973 in [8], 0.197 in test [9] and 1.18 in test [10].

`C=CC(C)(O)CCC=C(C)C` (stereo not given) [linalool]: the odorant receptor activation was determined as 0.887 in test [1]; 0.824 in [2]; 0.863 in test [3]; 1.05 in [4]; 1.09 in test [5]; 0.795 in test [6]. The odorant receptor activation in [7] turned out to be 0.958; in test [8] it was 1.19; in test [9], 1.12; in [10], 0.621.

Take `CCCCCCCC=O` [octyl aldehyde]: the odorant receptor activation in test [1] turned out to be 0.803; in test [2] it was 0.938; in test [3], 0.967; in [4] it was 1.13; in test [5], 1.12; in [6] it was 1.05. Besides, the odorant receptor activation in [7] worked out at 0.831; in test [8] it was 0.836; in [9], 0.996; in [10], 0.857.
